Experimental data published in publication doi:10.1101/2023.11.28.569009.
No constants are given. Whether binding was seen depends on the method and setting. Binding seen in cells or lysates may run through a third protein. Some results given as binding are weak or reduced against the parent protein; the word gives no strength. For part of these data: Sequences can lack the tags named with a protein.

B1: Nedd4 family-interacting protein 1 (NDFIP1), endogenous in HEK-293T cells (protein, UniProt Q9BT67 1-221)
chain: MALALAALAAVEPACGSRYQQLQNEEESGEPEQAAGDAPPPYSSISAESAAYFDYKDESGFPKPPSYNVATTLPSYDEAERTKAEATIPLVPGRDEDFVGRDDFDDADQLRIGNDGIFMLTFFMAFLFNWIGFFLSFCLTTSAAGRYGAISGFGLSLIKWILIVRFSTYFPGYFDGQYWLWWVFLVLGFLLFLRGFINYAKVRKMPETFSNLPRTRVLFIY
B2: Nedd4 family-interacting protein 1 (NDFIP1), endogenous in iPSC-derived astrocytes (protein, UniProt Q9BT67 1-221)
chain: B1 chain
B3: Nedd4 family-interacting protein 1 (NDFIP1), overexpressed (protein, UniProt Q9BT67 1-221)
chain: B1 chain

Key:
[1] = molecular target: T1, low-density lipoprotein receptor-related protein 10 (LRP10), wild type, overexpressed untagged (human) (UniProt Q7Z4F1); experiment: co-IP
T1 sequence: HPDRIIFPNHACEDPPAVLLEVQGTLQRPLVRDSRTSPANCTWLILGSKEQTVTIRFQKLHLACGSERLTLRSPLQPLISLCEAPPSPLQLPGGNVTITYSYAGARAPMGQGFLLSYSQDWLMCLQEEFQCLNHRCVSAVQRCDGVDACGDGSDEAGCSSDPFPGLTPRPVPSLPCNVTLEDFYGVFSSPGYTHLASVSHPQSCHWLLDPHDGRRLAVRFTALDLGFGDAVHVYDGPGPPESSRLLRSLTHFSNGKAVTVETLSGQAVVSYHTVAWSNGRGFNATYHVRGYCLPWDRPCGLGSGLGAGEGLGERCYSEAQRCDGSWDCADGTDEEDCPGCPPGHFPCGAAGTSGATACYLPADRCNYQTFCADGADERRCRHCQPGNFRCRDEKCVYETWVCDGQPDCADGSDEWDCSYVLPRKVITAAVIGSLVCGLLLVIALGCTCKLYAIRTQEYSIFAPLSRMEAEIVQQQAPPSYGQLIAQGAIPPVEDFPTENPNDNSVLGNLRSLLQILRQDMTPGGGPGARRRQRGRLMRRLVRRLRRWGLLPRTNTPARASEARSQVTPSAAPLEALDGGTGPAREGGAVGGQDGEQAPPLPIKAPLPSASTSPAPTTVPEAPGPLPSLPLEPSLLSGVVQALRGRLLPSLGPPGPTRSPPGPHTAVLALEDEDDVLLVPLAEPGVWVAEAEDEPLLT

[2] = molecular target: T2, low-density lipoprotein receptor-related protein 10 (LRP10), endogenous in iPSC-derived astrocytes (human (endogenous in iPSC-derived astrocytes)) (UniProt Q7Z4F1); experiment: co-IP
T2 sequence: T1 sequence

| Binder | binding [1] | binding [2] |
| --- | --- | --- |
| B1 | binds |  |
| B2 |  | binds |
| B3 | binds |  |
